Measured values reported in PubChem BioAssay AID493014 (National Center for Advancing Translational Sciences (NCATS), 2011).
Where “and” joins values, the source holds several entries; their conditions need not be identical. Identical values can stand only once. Some of the results follow. These are further read-outs of the screen, such as a control signal, another cell line or another target. No call is given for them. The list favours compounds with an active or inconclusive main result. Words in brackets tell the shape of the fitted curve; partial curves, single points and poor fits give uncertain potencies.

Test: qHTS Assay to Find Inhibitors of Chronic Active B-Cell Receptor Signaling
Conditions: ABC-DLBCL IkBa-CBG/CBR reporter, luminescence ratio (green luciferase fused to IkBa over red control in TMD8 lymphoma cells), 4 h
In short: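 Doxycycline induced both beetle luciferases in TMD8 lymphoma cells; IKK-driven degradation limits the IkappaBalpha-fused green signal, while red luminescence normalises for cell number and nonspecific effects. Compounds tested up to 46 uM, 4 hrs.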

[1] = measured here: CBR red luminescence, cell number
[2] = measured here: IkBa-CBG green luminescence

SMILES | AC50 [1] | AC50 [2]
CCOC(=O)c1cnn(-c2ccccc2)c1-c1ccncc1 | 10 µM [falling, partial curve, poor fit] | –
Cc1cc(C(=O)NCc2ccc(F)cc2)c2ccccc2n1 | 0.0891 µM [rising, full curve, poor fit] | –
C/C(=C\c1ccccc1)C(=O)NCCc1ccccc1 | 11.2 µM [falling, single point] | –
CCCCC(=O)Nc1cccc(NC(=O)c2cccnc2Cl)c1 | 35.5 µM [falling, single point] | –
O=C1C2CCCN2C(=S)N1C1CCCCC1 (stereo not given) | 20 µM [falling, single point] | –
Cc1ccc(N2CC(C(=O)OCC(=O)Nc3ccccc3F)CC2=O)cc1 (stereo not given) | 17.8 µM [rising, partial curve, poor fit] | –
Cc1cc(S(=O)(=O)NCC(C)C)ccc1OCC(=O)N1CCOCC1 | 6.51 µM [rising, single point] | –
Cc1cccc(OCCCC(=O)NNC(=O)c2cccc(N(C)C)c2)c1 | 29.1 µM [rising, single point] | 13 µM [falling, partial curve, poor fit]
Cc1ccc(/C=N/Nc2cc(C)nc(NCc3ccccc3)n2)cc1 | 10 µM [rising, partial curve] | –
CC(C)CCn1cnc2c([nH]c3cccc(Cl)c32)c1=O | 0.501 µM [rising, partial curve, poor fit] | –
CCOC(=O)C1=C(c2ccccc2)NC(SCC(=O)Nc2cccc(C)c2)=C(C#N)C1c1ccco1 (stereo not given) | 2.24 µM [falling, partial curve, poor fit] | –
O=C(O)c1cccc(S(=O)(=O)N2CCCC(c3nc4c(nnn4Cc4ccccc4Cl)c(=O)[nH]3)C2)c1 (stereo not given) | 35.5 µM [falling, single point] | –
COCCn1c(SCC(=O)c2[nH]c(C)c(C(C)=O)c2C)nc2ccccc21 | 0.58 µM [rising, full curve, poor fit] | –
c1ccc(CNCC2COc3ccccc3O2)cc1 (stereo not given) | 16.4 µM [rising, single point] | –
CNC(=O)c1c(Cl)cnn1-c1ccccc1 | 35.5 µM [rising, single point] | –
O=C(Nc1ccc(F)cc1)c1nc(S(=O)(=O)Cc2ccccc2)ncc1Cl | 6.31 µM [falling, full curve] | –
O=C(Nc1cc(-c2ccccc2)[nH]n1)c1ccccc1 | 0.794 µM [falling, full curve] | –
CC(NC(=O)c1ccc(F)cc1)C(c1cccs1)N1CCN(C)CC1 (stereo not given) | 0.13 µM [rising, full curve, poor fit] | –
Fc1cccc(CSc2nnc3c(n2)[nH]c2ccccc23)c1 | 0.631 µM [rising, full curve, poor fit] | –
O=C(O)c1cc(S(=O)(=O)Nc2ccc3cn[nH]c3c2)ccc1Br | 29.1 µM [falling, single point] | –
Cc1ccc(C(=O)Nc2ccc(SC(F)F)cc2)s1 | 15.8 µM [falling, single point] | –
CCOC(=O)N1CCC(NC(=O)CSCc2nc(-c3ccc(OCC)cc3)oc2C)CC1 | 35.5 µM [falling, single point] | –

SMILES | AC50 [1] | AC50 [2]
Cc1cccc(NC(=O)[C@H](NC(=O)[C@@H]2Cc3ccccc3CN2)c2ccccc2)c1 | 12.6 µM [falling, partial curve, poor fit] | –
CCCN1CNc2c(c(=O)[nH]c(=S)n2-c2ccccc2Cl)C1 | 35.5 µM [rising, single point] | –
O=[N+]([O-])c1ccc(Cl)cc1N1CCCC1 | 15.8 µM [rising, single point] | –
c1ccc(C2=NNC(c3ccccn3)=NN2)nc1 | 2.82 µM [falling, full curve] | 3.55 µM [rising, single point]
COc1cc(/C=N/NC(=O)c2cc3ccccc3[nH]2)ccc1O | 10 µM [falling, partial curve] | –
CCc1cccc2c3c([nH]c12)C(CC)(CC(=O)O)OCC3 (stereo not given) | 0.0058 µM [rising, full curve, poor fit] | –
COc1ccc(NC(=O)c2cnc(SCC(=O)Nc3nc4ccc(C)cc4s3)n(C)c2=O)cc1 | 4.47 µM [falling, single point] | –
CSc1nsc(SCC(=O)Nc2nncs2)n1 | 35.5 µM [falling, single point] | –
CC(C)C(=O)Nc1ccc2c(c1)oc1ccccc12 | 16.4 µM [falling, single point] | –
O=C(Nc1cccc(F)c1)Nc1ccc2c(c1)OCO2 | 20 µM [falling, single point] | –
Cc1ccc(C(=O)N(Cc2nc3ccccc3c(=O)[nH]2)C2CCCC2)cc1 | 12.6 µM [falling, partial curve] | –
Oc1c(Cl)cc(Cl)cc1/C=N/NC(=S)NC1CC2C=CC1C2 (stereo not given) | 12.6 µM [falling, partial curve] | –
O=C(Nc1ccc(Br)cc1)c1cccc(S(=O)(=O)Nc2ccccn2)c1 | 35.5 µM [falling, single point] | –
CCCc1sc(N/N=C/c2ccccn2)nc1-c1ccc(Br)cc1 | 13 µM [rising, partial curve] | –
O=C(CCc1ccccc1)NCC(c1ccco1)N1CCc2ccccc21 (stereo not given) | 18.4 µM [rising, partial curve] | 18.4 µM [falling, single point]
Cc1ccnc(N2CCC(C(=O)Nc3cccc(C(F)(F)F)c3)CC2)n1 | 22.4 µM [falling, partial curve, poor fit] | –
O=C(NC(=S)Nc1cccnc1Cl)c1ccco1 | 12.6 µM [falling, partial curve] | –
Cc1ccc(Nc2nc3c([nH]2)c(=O)[nH]c(=O)n3C)cc1 | 1.84 µM [falling, single point] | –
Cc1oc2c(C)c3oc(=O)c4c(c3cc2c1C)CCCC4 | 0.562 µM [falling, full curve] | –
O=C(CSCc1ccc(F)cc1)N1CCN(c2ccccc2)CC1 | 3.98 µM [rising, full curve, poor fit] and 22.4 µM [rising, single point] | –
CCCCC(=O)O[C@]1(C(=O)CO)CC[C@H]2[C@@H]3CCC4=CC(=O)CC[C@]4(C)[C@H]3[C@@H](O)C[C@@]21C | 25.9 µM [rising, partial curve, poor fit] | 23.1 µM [falling, partial curve, poor fit]
CC(=O)c1ccc(N2CCN(c3ccc(S(=O)(=O)NCCCN(C)C)cc3[N+](=O)[O-])CC2)cc1 | 22.4 µM [falling, single point] | –

SMILES | AC50 [1] | AC50 [2]
CC(C)OC(=O)c1cc(=O)[nH]c2ccccc12 | 5.01 µM [rising, full curve] | –
Cc1ccc(NC(=O)CSc2ncc3ccccn23)cc1 | 0.891 µM [rising, full curve, poor fit] | –
CCOC(=O)C1CCN(C(=O)COC(=O)c2cc([N+](=O)[O-])ccc2N2CCOCC2)CC1 | 11.6 µM [rising, partial curve, poor fit] | –
O=C1C(Cl)=C(NC(=O)c2ccccc2)C(=O)C(Cl)=C1NC(=O)c1ccccc1 | 35.5 µM [falling, single point] | 3.55 µM [falling, single point]
Cc1ccc(-n2nc3cc(Cl)c(NC(=O)c4ccco4)cc3n2)cc1 | 16.4 µM [rising, partial curve, poor fit] | –
O=C(OCc1cc(=O)n2ccsc2n1)c1ccccc1O | 20.6 µM [falling, single point] | –
CC(C)CCn1c(N)c(S(=O)(=O)c2cccs2)c2nc3ccccc3nc21 | 23.1 µM [falling, partial curve] | –
CCCC(=O)NCCc1cc2ccc(OC)cc2[nH]c1=O | 25.9 µM [falling, single point] | –
CCOC(=O)CSc1nnc(-c2c[nH]c3ccccc23)o1 | 10 µM [falling, partial curve] | –
CC(C)Cc1cc(C(=O)Nc2cccnc2)no1 | 23.1 µM [falling, partial curve, poor fit] | –
Cc1c(C(=O)CN2CCSCC2)c2ccccc2n1C | 7.08 µM [rising, full curve, poor fit] | –
CC(N=C(NS(=O)(=O)c1ccc(Cl)cc1)c1ccccc1)C(=O)O (stereo not given) | 1.84 µM [rising, partial curve, poor fit] | –
COc1ccccc1/C=N/NC(=O)CCn1cnc2ccccc21 | 5.8 µM [falling, partial curve] | –
O=C(c1ccccc1)C1CCN(c2ncccc2[N+](=O)[O-])CC1 | 0.282 µM [rising, full curve, poor fit] | –
O=C(N/N=C/c1ccsc1)c1c[nH]c2ccccc12 | 10 µM [falling, partial curve] | –
CC(C)CCc1noc(CN2CCC(CCN3CCCC3=O)CC2)n1 | 15.8 µM [rising, single point] | –
Cn1c(/C=C/c2ccc(Br)cc2)c([N+](=O)[O-])c(=O)n(C)c1=O | 6.31 µM [falling, full curve, poor fit] | –
O=S(=O)(NCC(Nc1ccccc1)c1ccccc1)c1ccc(Cl)cc1 (stereo not given) | 20.6 µM [falling, single point] | –
CCCCCCCCCn1c2c(c(=N)c3c1CCC3)CCCC2 | 12.6 µM [falling, partial curve] | 10 µM [rising, partial curve, poor fit]
CCCc1nnc(NC(=O)c2ccc([N+](=O)[O-])cc2)s1 | 1.64 µM [falling, full curve, poor fit] | –
